Measurements published in PubChem BioAssay AID286 (DTP/NCI, 2004).
The list is a part of this screen's results and no random one: it gathers tests that were run many times, whatever their T/C, doses with no T/C, and many T/C values between a quarter and a half above the control. Other doses and runs of a compound stand elsewhere. T/C: endpoint of the treated group in % of that of the vehicle group. Some entries give survivors of the animals treated and no T/C: the source holds a T/C of zero for them, seemingly a mark for toxic or unscored doses. Some survivor counts are full or nearly so, which does not show that the dose was tolerated: the source hardly ever lists a survival T/C far under the control, and the zero likely stands for such cases as well. Counts of survivors are from the toxicity check (mostly the fifth day) where no day follows; animals may have died later. Schedules are NCI's codes, taken here to give the interval after Q, in days (D) or hours (H), and the number of doses after X. Some entries were tested several times; the values are given in rising order. For survival time, this PubChem deposit counts one and a half times the control or more as active, and values a quarter to a half above the control carry no call in these data; other NCI protocols may use other cut-offs. Marks such as (2×) stand for listed records that agree. Some T/C values are followed by the survivors on the day toxicity was checked, most often the fifth; where none is given, no animal had died by that day.

Tested on: BDF1 mice, M5076 sarcoma ip, median survival T/C
Test: NCI In Vivo Anticancer Drug Screen. Data for tumor model Sarcoma M5076 (intraperitoneal) in B6D2F1 (BDF1) mice
Conditions: T/C endpoint: median survival time, higher T/C = longer survival
Procedure: The antitumor activity of compounds was measured in mice bearing transplantable tumors. Survival or tumor size were measured and the results are expressed as the measurement made in the treated group (T) divided by the measurement made in the vehicle treated control group (C). The tumor model used in this assay is Sarcoma M5076 (intraperitoneal) in B6D2F1 (BDF1) mice

[1] = dose: 12.0 mg/kg/injection, schedule: Q04DX005 (ip), vehicle: Klucel (hydroxypropylcellulose) (HPC)
[2] = dose: 160.0 mg/kg/injection, schedule: Q04DX005 (ip), vehicle: saline

Nc1nc(=S)c2[nH]cnc2[nH]1 was tested, and the T/C (dose: 1.0 mg/kg/injection, schedule: Q04DX005 (ip), vehicle: alkali diluted with saline) was 141 % of control, the T/C (dose: 1.5 mg/kg/injection, schedule: Q04DX004 (ip), vehicle: Klucel (hydroxypropylcellulose) (HPC)) was 108, 120, 121, 129 % of control and the T/C (dose: 1.5 mg/kg/injection, schedule: Q04DX005 (ip), vehicle: Klucel (hydroxypropylcellulose) (HPC)) was 109, 119, 126, 132 % of control. The T/C (dose: 1.5 mg/kg/injection, schedule: Q04DX005 (ip), vehicle: alkali diluted with saline) was 132 % of control, the T/C (dose: 3.0 mg/kg/injection, schedule: Q04DX004 (ip), vehicle: Klucel (hydroxypropylcellulose) (HPC)) was 100, 116, 123, 129 % of control and the T/C (dose: 3.0 mg/kg/injection, schedule: Q04DX005 (ip), vehicle: Klucel (hydroxypropylcellulose) (HPC)) was 118, 125, 132, 149 % of control. For the same compound, the T/C (dose: 3.0 mg/kg/injection, schedule: Q04DX005 (ip), vehicle: alkali diluted with saline) was 143 % of control, the T/C (dose: 4.0 mg/kg/injection, schedule: Q04DX005 (ip), vehicle: alkali diluted with saline) was 127 % of control and the T/C (dose: 6.0 mg/kg/injection, schedule: Q04DX004 (ip), vehicle: Klucel (hydroxypropylcellulose) (HPC)) was 124 [8 of 9 alive on day 9], 127, 131, 138 % of control. The T/C (dose: 6.0 mg/kg/injection, schedule: Q04DX005 (ip), vehicle: Klucel (hydroxypropylcellulose) (HPC)) was 101, 127, 142, 156 % of control, the survivor count (dose: 8.0 mg/kg/injection, schedule: Q04DX005 (ip), vehicle: alkali diluted with saline) was 10 of 10 and the T/C (dose: 12.0 mg/kg/injection, schedule: Q04DX004 (ip), vehicle: Klucel (hydroxypropylcellulose) (HPC)) was 119, 138, 141, 144 % of control. The T/C [1] was 95 and 144 % of control, the survivor count [1] was 10 of 10 on day 9 and the survivor count (dose: 12.0 mg/kg/injection, schedule: Q04DX005 (ip), vehicle: alkali diluted with saline) was 1 of 8 on day 17.

With O=P1(N(CCCl)CCCl)NCCCO1 (stereo not drawn) the T/C (dose: 10.0 mg/kg/injection, schedule: Q04DX005 (ip), vehicle: saline) was 126 % of control, the T/C (dose: 20.0 mg/kg/injection, schedule: Q04DX004 (ip), vehicle: saline) was 105, 113, 114, 118, 119 % of control and the T/C (dose: 20.0 mg/kg/injection, schedule: Q04DX005 (ip), vehicle: saline, evaluated on day 75) was 102, 116, 119, 120, 121 % of control. The T/C (dose: 20.0 mg/kg/injection, schedule: Q04DX005 (ip), vehicle: saline, evaluated on day 90) was 129 % of control, the T/C (dose: 20.0 mg/kg/injection, schedule: Q04DX005 (ip), vehicle: saline, evaluated on day 100) was 180 % of control and the T/C (dose: 40.0 mg/kg/injection, schedule: Q04DX004 (ip), vehicle: saline, evaluated on day 60) was 132, 166, 234, 241 % of control. The T/C (dose: 40.0 mg/kg/injection, schedule: Q04DX004 (ip), vehicle: saline, evaluated on day 75) was 112, 124, 138, 149, 159 % of control, the T/C (dose: 40.0 mg/kg/injection, schedule: Q04DX005 (ip), vehicle: saline, evaluated on day 75) was 119, 139, 146, 165, 169 % of control and the T/C (dose: 40.0 mg/kg/injection, schedule: Q04DX005 (ip), vehicle: saline, evaluated on day 90) was 179 % of control. The T/C (dose: 40.0 mg/kg/injection, schedule: Q04DX005 (ip), vehicle: saline, evaluated on day 100) was 253 % of control, the T/C (dose: 80.0 mg/kg/injection, schedule: Q04DX004 (ip), vehicle: saline, evaluated on day 60) was 207, 214, 221, 260 % of control and the T/C (dose: 80.0 mg/kg/injection, schedule: Q04DX004 (ip), vehicle: saline, evaluated on day 75) was 156, 182, 188, 195, 224 % of control. The T/C (dose: 80.0 mg/kg/injection, schedule: Q04DX005 (ip), vehicle: saline, evaluated on day 75) was 99, 170, 196, 208, 242 % of control, the T/C (dose: 80.0 mg/kg/injection, schedule: Q04DX005 (ip), vehicle: saline, evaluated on day 90) was 245 % of control and the T/C (dose: 80.0 mg/kg/injection, schedule: Q04DX005 (ip), vehicle: saline, evaluated on day 100) was 95 % of control. For the same compound, the T/C (dose: 160.0 mg/kg/injection, schedule: Q04DX004 (ip), vehicle: saline, evaluated on day 60) was 237, 260, 263, 284 % of control, the T/C (dose: 160.0 mg/kg/injection, schedule: Q04DX004 (ip), vehicle: saline, evaluated on day 75) was 88, 98 (2×), 210, 282 % of control and the T/C [2] was 86, 106, 219 [9 of 10 alive on day 9], 327 % of control. For the same compound, the survivor count [2] was 2 of 8 on day 17 and 9 of 10 on day 9.

In the case of COc1cccc2c1C(=O)c1c(O)c3c(c(O)c1C2=O)C[C@](O)(C(=O)CO)CC3OC1CC(N)C(OC2CCCCO2)C(C)O1 (stereo partly drawn), the survivor count (dose: 12.5 mg/kg/injection, schedule: Q04DX004 (ip), vehicle: water) was 5 of 10 on day 14, the survivor count (dose: 25.0 mg/kg/injection, schedule: Q04DX004 (ip), vehicle: water) was 0 of 10 on day 14 and the survivor count (dose: 50.0 mg/kg/injection, schedule: Q04DX004 (ip), vehicle: water) was 0 of 10 on day 14. The survivor count (dose: 100.0 mg/kg/injection, schedule: Q04DX004 (ip), vehicle: water) was 0 of 10 on day 14 and the survivor count (dose: 200.0 mg/kg/injection, schedule: Q04DX004 (ip), vehicle: water) was 0 of 10 on day 14.

CCOC(=O)C(N)CSC(=O)NC (stereo not drawn) was tested, and the survivor count (dose: 1200.0 mg/kg/injection, schedule: Q04DX004 (ip), vehicle: saline) was 0 of 10 on day 14.

C/C(=N\NC(=S)N1CC2CCC(CC2)C1)c1nccs1 was tested, and the survivor count (dose: 50.0 mg/kg/injection, schedule: Q04DX004 (ip), vehicle: saline with Tween-80) was 8 of 10 on day 14, the survivor count (dose: 100.0 mg/kg/injection, schedule: Q04DX004 (ip), vehicle: saline with Tween-80) was 1 of 10 on day 14 and the survivor count (dose: 200.0 mg/kg/injection, schedule: Q04DX004 (ip), vehicle: saline with Tween-80) was 0 of 10 on day 14.

For CSC1SCC2C(=O)N(C)C(C(C)C)C(=O)OCC(NC(=O)c3cnc4ccccc4n3)C(=O)NC(C)C(=O)N(C)C1C(=O)N(C)C(C(C)C)C(=O)OCC(NC(=O)c1cnc3ccccc3n1)C(=O)NC(C)C(=O)N2C (stereo not drawn), the T/C (dose: 12.5 micrograms/kg/injection, schedule: Q01DX009 (ip), vehicle: saline with Tween-80) was 136 % of control and the survivor count (dose: 200.0 micrograms/kg/injection, schedule: Q01DX009 (ip), vehicle: saline with Tween-80) was 5 of 10.

Cc1c2ccccc2c(C)c2c1cc(C(=O)O)c1ccccc12 was tested, and the T/C (dose: 50.0 mg/kg/injection, schedule: Q04DX004 (ip), vehicle: sodium bicarbonate) was 128 % of control.

With O=C(NC(Cc1ccc(I)cc1)C(=O)O)c1cccc(Br)c1 (stereo not drawn) the survivor count (dose: 800.0 mg/kg/injection, schedule: Q04DX004 (ip), vehicle: Klucel (hydroxypropylcellulose) (HPC)) was 2 of 10 on day 14.

In the case of O=NN(CCCl)C(=O)NC1CCCCC1, the survivor count (dose: 24.0 mg/kg/injection, schedule: Q01DX005 (sc), vehicle: other) was 9 of 10 on day 9.

In the case of O=c1n(CC2CO2)c(=O)n(CC2CO2)c(=O)n1CC1CO1 (stereo not drawn), the survivor count (dose: 100.0 mg/kg/injection, schedule: Q04DX005 (ip), vehicle: saline) was 0 of 10 on day 17.

With C=C1C(=O)OC2C(OC(C)=O)C1C(OC(=O)C(C)CC)[C@]1(C)C(=O)C=C[C@H]1[C@@H]2C (stereo partly drawn) the survivor count (dose: 20.0 mg/kg/injection, schedule: Q01DX009 (ip), vehicle: Klucel (hydroxypropylcellulose) (HPC)) was 3 of 10 on day 9.

In the case of COc1cc(NCc2ccc3nc(N)nc(N)c3c2C)cc(OC)c1OC, the T/C (dose: 7.5 mg/kg/injection, schedule: Q04DX005 (ip), vehicle: Klucel (hydroxypropylcellulose) (HPC)) was 141 % of control, the survivor count (dose: 40.0 mg/kg/injection, schedule: Q01DX009 (ip), vehicle: Klucel (hydroxypropylcellulose) (HPC)) was 0 of 5 and the survivor count (dose: 120.0 mg/kg/injection, schedule: Q04DX005 (ip), vehicle: Klucel (hydroxypropylcellulose) (HPC)) was 9 of 10 on day 9.
